Reference: PubChem BioAssay AID1259254 (NCATS, 2017)
Assay: 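Gene knock-downs that lead to re-replication, shown by excess G2 DNA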 (primary screen). Cell system: human HCT116 colorectal cancer cells. Reagent: single siRNA against human genes. Time to read-out: 3 days. Measurement: 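Nuclei stained with Hoechst and imaged; cell-cycle phase assigned by DNA content; G2 share scaled per plate, non-targeting siRNA 0%, GMNN siRNA 100%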. Reading the numbers: G2 robust z-score and G2 cells, % of GMNN control: higher = more G2 cells, more excess DNA replication. Rule for the call: 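An siRNA counts as active if its G2 robust z-score lies at least 5 MADs above the screen median; here such calls match roughly 38% of GMNN control or more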.
In all, the deposit lists about 59,000 reagents; shown is a part drawn at random. About 1,550 of them (2.6%) were called active. 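G2 share is only a proxy for re-replication; each gene was hit by three separate siRNAs, and active genes were retested.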 A number with no mark means an inactive call. Reagents against one gene are numbered here. Not all columns of the deposit are shown. The record does not give: the amount of reagent.

TBCCD1 (TBCC domain containing 1) #1: G2 robust z-score = 2.12; G2 cells, % of GMNN control = 17.9
TBCCD1 (TBCC domain containing 1) #2: G2 robust z-score = -0.818; G2 cells, % of GMNN control = -2.79
TBCCD1 (TBCC domain containing 1) #3: G2 robust z-score = -0.884; G2 cells, % of GMNN control = -3.26
LNCRI (lncRNA radiation induced regulator of PLK1 and RAD51) #1: G2 robust z-score = -1.19; G2 cells, % of GMNN control = -5.38
LNCRI (lncRNA radiation induced regulator of PLK1 and RAD51) #2: G2 robust z-score = 0.39; G2 cells, % of GMNN control = 5.71
LNCRI (lncRNA radiation induced regulator of PLK1 and RAD51) #3: G2 robust z-score = -0.449; G2 cells, % of GMNN control = -0.19
CDKN2C (cyclin dependent kinase inhibitor 2C) #1: G2 robust z-score = 1.56; G2 cells, % of GMNN control = 14
CDKN2C (cyclin dependent kinase inhibitor 2C) #2: G2 robust z-score = -0.455; G2 cells, % of GMNN control = -0.237
CDKN2C (cyclin dependent kinase inhibitor 2C) #3: G2 robust z-score = -1.16; G2 cells, % of GMNN control = -5.18
LRATD2 (LRAT domain containing 2) #1: G2 robust z-score = 4.08; G2 cells, % of GMNN control = 31.7
LRATD2 (LRAT domain containing 2) #2: G2 robust z-score = 2.81; G2 cells, % of GMNN control = 22.8
LRATD2 (LRAT domain containing 2) #3: G2 robust z-score = -0.485; G2 cells, % of GMNN control = -0.443
HTR3A (5-hydroxytryptamine receptor 3A) #1: G2 robust z-score = 0.017; G2 cells, % of GMNN control = 3.09
HTR3A (5-hydroxytryptamine receptor 3A) #2: G2 robust z-score = 0.00531; G2 cells, % of GMNN control = 3
HTR3A (5-hydroxytryptamine receptor 3A) #3: G2 robust z-score = -0.578; G2 cells, % of GMNN control = -1.1
INTS10 (integrator complex subunit 10) #1: G2 robust z-score = 1.47; G2 cells, % of GMNN control = 13.3
INTS10 (integrator complex subunit 10) #2: G2 robust z-score = -0.206; G2 cells, % of GMNN control = 1.52
INTS10 (integrator complex subunit 10) #3: G2 robust z-score = 0.711; G2 cells, % of GMNN control = 7.97

Part of the list above, reformatted:
target gene	siRNA no.	G2 robust z-score	G2 cells, % of GMNN control
CDKN2C (cyclin dependent kinase inhibitor 2C)	3	-1.16	-5.18
LRATD2 (LRAT domain containing 2)	1	4.08	31.7
